Amino acid sequences for entries named in this document (tags omitted).
UniProt P10276, whole entry, looked up: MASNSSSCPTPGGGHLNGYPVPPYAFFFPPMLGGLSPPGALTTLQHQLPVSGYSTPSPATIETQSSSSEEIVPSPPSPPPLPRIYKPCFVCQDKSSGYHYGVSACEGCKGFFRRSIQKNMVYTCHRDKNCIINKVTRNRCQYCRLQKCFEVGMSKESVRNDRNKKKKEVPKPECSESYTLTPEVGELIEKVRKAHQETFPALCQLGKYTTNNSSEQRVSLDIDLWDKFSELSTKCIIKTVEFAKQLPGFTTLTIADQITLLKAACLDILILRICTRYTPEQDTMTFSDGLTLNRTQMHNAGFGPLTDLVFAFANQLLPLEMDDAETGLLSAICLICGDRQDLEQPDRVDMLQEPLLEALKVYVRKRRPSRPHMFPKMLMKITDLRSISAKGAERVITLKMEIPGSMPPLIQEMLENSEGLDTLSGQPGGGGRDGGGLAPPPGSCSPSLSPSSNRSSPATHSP

Values joined by “and” are separate entries in the source; they are usually repeats but may differ in a detail not shown here. Equal values may be shown once. Inconclusive means that the source gave no clear call. Such entries were picked first, then a sample of the others. Potencies beside an inconclusive call are fits to weak or partial responses and may not hold up. Active and inactive are the calls of the source. Rule for the calls: active = hit-call score of the fitted dose curve at least 0.9, where 1 is the maximum; inconclusive = response in the unintended direction; inactive = score below 0.9.
The compounds below were run against Retinoic acid receptor alpha (Homo sapiens) (UniProt P10276) (assay: ATG_RARa_TRANS: Attagene TRANS-FACTORIAL HepG2 Assay for human Retinoic Acid Receptor alpha (RARa) (AID 2283005);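 for AC50: potency for increased reporter signal meaning RARa activation over DMSO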).
Protocol: ATG_TRANS is a cell-based, multiplexed-readout assay that uses HepG2, a human liver cell line, with measurements taken at 24 hours after chemical dosing in a 24-well plate.ATG_RARa_TRANS is one of 30 assay component(s) measured or calculated from the ATG_TRANS assay. It is designed to make measurements of mRNA induction, a form of inducible reporter, as detected with fluorescence intensity signals by Reverse transcription polymerase chain reaction (RT-PCR) and Capillary electrophoresis technology.Data from the assay component ATG_RARa_TRANS was analyzed into 1 assay endpoint. This assay endpoint, ATG_RARa_TRANS, was analyzed in the positive analysis fitting direction relative to DMSO as the negative control and baseline of activity. Using a type of inducible reporter, measures of mRNA for gain-of-signal activity can be used to understand the reporter gene at the transcription factor-level as they relate to the gene RARA. Furthermore, this assay endpoint can be referred to as a primary readout, because this assay has produced multiple assay endpoints where this one serves a reporter gene function. To generalize the intended target to other relatable targets, this assay endpoint is annotated to the nuclear receptor intended target family, where the subfamily is non-steroidal.
Human liver HepG2 cells are transiently transfected with multiple reporter transcription units (MRTUs) in 6-well plates using FuGene 6 reagent (Roche; 3 ml FuGene/1 mg DNA). The MRTU constructs are regulated by a cis-regulating element (promoter). […] A major difference between the CIS and TRANS system is that in CIS activities of endogenous TFs are measured, whereas the TRANS assay evaluates changes in activities of exogenous, chimeric NR-Gal4 proteins. […] At the end of 24 hour incubation, total RNA was isolated using TriZol reagent (Invitrogen). The isolated RNA is then reverse-transcribed using oligo(dT) primer and Mo-MLV reverse transcriptase (Invitrogen) with DNAse I (Ambion) treatment for 30 min. The one-tenth of the produced cDNA was amplified by PCR using Taq DNA polymerase (Invitrogen) and two reporter sequence-specific primers. The PCR products were fluorescently labeled by primer extension with 6-arboxyfluorescein (6-FAM) 5'-labeled reporter sequence-specific primer (2 min at 95 C, 20 s at 68 C and 10 min at 72 C) and these products were digested with 5U of HpaI (New England Biolabs) for 2h at 37 C. The fragments were purified using Qiaquick PCR columns (Qiagen), analyzed on an ABI 3130xL genetic analyzer (Applied Biosystems) with peak positions identified by using a set of X-rhodamine (ROX)-labeled MapMarker1000 molecular weight standards (BioVentures). The raw capillary electrophoresis data was processed using Attagraph software (Attagene).
`O=C(O)C(F)(OC(F)(F)C(F)(F)C(F)(F)F)C(F)(F)F` (stereo not given) was tested, and the outcome was “inactive” and the AC50 was inconclusive: 25 µM and inconclusive: 150 µM.
For `COc1ccc(C=O)cc1OC`, the AC50 was inconclusive: 26.9 µM.
For `COP(=O)(OC)OC(Br)C(Cl)(Cl)Br` (stereo not given), the outcome was “inactive”.
In the case of `CC(C)Nc1ccc(Nc2ccccc2)cc1`, the outcome is reported as “inactive”.
With `CC(C)=CC1C(C(=O)OCc2cccc(Oc3ccccc3)c2)C1(C)C` (stereo not given) the outcome was “inactive”.
For `COP(=O)(CCC(=O)NCO)OC`, the AC50 was inconclusive: 100 µM.
In the case of `C=CC(=O)OCC(CC)CCCC` (stereo not given), the AC50 is reported as inconclusive: 178 µM.
With `Cc1ccc(O)c(C)c1` the AC50 was inconclusive: 2.44 µM.
In the case of `C=CC(=O)OCC(F)(F)C(F)F`, the AC50 is reported as inconclusive: 150 µM.
In the case of `CCNP(=S)(OC)O/C(C)=C/C(=O)OC(C)C` (stereo not given), the AC50 is reported as active: 22.1 µM.
In the case of `O=C(O)COc1nc(Cl)c(Cl)cc1Cl`, the outcome is reported as “inactive”.
With `CC(Cl)CN(C)C` (stereo not given) the AC50 was inconclusive: 100 µM.
In the case of `ClC1=C(Cl)[C@]2(Cl)[C@@H]3[C@@H](Cl)[C@H](Cl)C[C@@H]3[C@@]1(Cl)C2(Cl)Cl`, the AC50 is reported as inconclusive: 172 µM.
In the case of `CC(C)(C)c1cc([N+](=O)[O-])cc(C(C)(C)C)c1O`, the AC50 is reported as active: 2.37 µM.
For `O=C(NC(=O)c1c(F)cccc1F)Nc1cc(Cl)c(OC(F)(F)C(F)F)c(Cl)c1`, the outcome was “inactive”.
For `N#Cc1cc(I)c(O)c(I)c1`, the outcome was “inactive”.
In the case of `COc1ccc(O)c(C(C)(C)C)c1`, the outcome is reported as “inactive”.
In the case of `O=C(Cl)OCCOCCOC(=O)Cl`, the AC50 is reported as inconclusive: 100 µM.
In the case of `O=C(O)COc1ccc(Cl)cc1`, the AC50 is reported as inconclusive: 100 µM.
With `CCNS(=O)(=O)C(F)(F)C(F)(F)C(F)(F)C(F)(F)C(F)(F)C(F)(F)C(F)(F)C(F)(F)F` the outcome was “inactive” and the AC50 was inconclusive: 257 µM.
`CC1(C)C(C(=O)OC(C#N)c2cccc(Oc3ccccc3)c2)C1(C)C` (stereo not given) was tested, and the AC50 was active: 13.7 µM.
With `O=C(Cc1ccccc1)c1ccccc1` the outcome was “inactive”.
For `COP(=S)(OC)Oc1ccc([N+](=O)[O-])cc1`, the AC50 was inconclusive: 0.0927 µM.
With `CC(C)Oc1cccc(NC(=O)c2ccccc2C(F)(F)F)c1` the outcome was “inactive”.
For `CSc1nc(NC(C)C)nc(NC(C)C)n1`, the outcome was “inactive”.
In the case of `COP(=S)(OC)SCn1nnc2ccccc2c1=O`, the AC50 is reported as inconclusive: 1.14 µM.
With `COP(=S)(OC)Oc1ccc(Sc2ccc(OP(=S)(OC)OC)cc2)cc1` the AC50 was inconclusive: 100 µM.
In the case of `C[As+](C)(C)CC(=O)[O-]`, the outcome is reported as “inactive”.
With `Cc1cccc(OP(=O)(Oc2cccc(C)c2)Oc2cccc(C)c2)c1` the AC50 was inconclusive: 19.8 µM.
In the case of `CCCCCCCCCCCCCN1CC(C)OC(C)C1` (stereo not given), the AC50 is reported as inconclusive: 181 µM.
For `NS(=O)(=O)C(F)(F)C(F)(F)C(F)(F)C(F)(F)C(F)(F)C(F)(F)C(F)(F)C(F)(F)F`, the AC50 was inconclusive: 255 µM and the outcome was “inactive”.

Reference: PubChem BioAssay (EPA / NIEHS)
